Test results taken from US20100120902A1, “STANDARIZED BIOACTIVE HERBAL EXTRACTS” (RANBAXY LABORATORIES LIMITED, priority 2007, published 2010).
Some of these results come from one statement about several compounds together.

System: supernatant cells
Test: Cell viability/toxicity test (MTT assay)
Type: cell-based
Conditions: 100 μg/ml
Experimental: Viability of cells was analyzed using (3-4,5-dimethylthiazol-2-yl)-2,5-diphenyl-tetrazolium bromide (MTT) assay (Mosmann T, J Immunol. Meth., 65 (1983), 55-63) with supernatant cells by adding 0.1 mL of MTT (0.25 mg/mL) with 0.1 mL of supernatant cells. The cells were incubated at 37° C. for about 2-4 hours, and then the optical density was measured at 490-650 nm.

SMILES	cytotoxcity
Cc1c(O)cc2oc3c(c(=O)c2c1O)-c1ccc(O)cc1OC3O (centres unmarked) [Boeravinone E]	less than 15%
Cc1c(O)cc2oc3c(c(=O)c2c1O)-c1ccccc1OC3O (centres unmarked) [Boeravinone B]	less than 15%
